{"source": "PubChem BioAssay AID493014", "about": "(National Center for Advancing Translational Sciences (NCATS), 2011)", "note": "The campaign covered roughly 340,000 compounds. About 170 (0.05%) were called active. This list was built around the results that the source calls inconclusive (neither active nor inactive); the mix of calls is not that of the screen. Calls follow the shape of the dose curve; as a rule, active = well fitted inhibition curve with a large enough effect in the signal ratio, with a control signal flat (not every such curve was filed as active); inconclusive = small, poorly fitted or top-dose-only effect, or effect the other way, or a change in a side signal; inactive = flat fitted curve, though single readings scatter; the % refers to the signal ratio. Potencies beside an inconclusive call are fits to weak or partial responses and may not hold up. Potency is read from the fitted curve at half-maximal effect.", "data": [{"test": "qHTS Assay to Find Inhibitors of Chronic Active B-Cell Receptor Signaling;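 as to activity change, negative = inhibition: plate controls were basal doxycycline-induced cells for no effect and cells given 10 µM MG132 for full effect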", "settings": "ABC-DLBCL IkBa-CBG/CBR reporter, luminescence ratio (green luciferase fused to IkBa over red control in TMD8 lymphoma cells), 4 h; activity change, negative = inhibition: at 46.1 µM (top of the series) unless noted", "procedure,_shortened": "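Compounds up to 46 uM were incubated four hours with TMD8 cells whose green CBG68 luciferase is fused to IkappaBalpha; red CBR luminescence normalised the signal, and concentration-effect curves were fitted to fusion, red and ratio data.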", "values": [{"smiles": "CC(C)CC(COCc1ccc(Cl)cc1)N1CCN(C(=O)c2ccc(Cl)cc2Cl)CCC1=O", "note": "(stereo not given)", "activity change, negative = inhibition": "inconclusive: -17.7%"}, {"smiles": "COc1ccc(CCn2c(N)c(C(=O)NCc3ccco3)c3nc4ccccc4nc32)cc1OC", "activity change, negative = inhibition": "inconclusive: -6.73%"}, {"smiles": "O=C(C1=C[C@@H](C2CC2)C[C@@H](OCCCCO)O1)N1CCOCC1", "activity change, negative = inhibition": "inconclusive: -20.8%"}, {"smiles": "O=C(c1ccc(COc2ccc(F)cc2)o1)n1cc(Br)cn1", "Potency": "inconclusive: 25.9 µM [falling, single point]"}, {"smiles": "Oc1cccc(/C=N\\Nc2nncc(-c3ccccc3)n2)c1", "Potency": "inconclusive: 10 µM [falling, partial curve]"}, {"smiles": "CCc1ccc(N/C(SCc2cccc(F)c2)=C(/C#N)C(=O)NCc2ccco2)cc1", "activity change, negative = inhibition": "inconclusive: -11.4%"}, {"smiles": "O=C(CCN1CCC(c2ccccc2)C1)c1ccccc1", "note": "(stereo not given)", "Potency": "inconclusive: 12.6 µM [rising, partial curve]"}, {"smiles": "C(=N\\Nc1nc2ccccc2[nH]1)/c1ccc2ncccc2c1", "Potency": "inconclusive: 20 µM [falling, single point]"}, {"smiles": "CCCN1C(=O)/C(=C\\c2nc3ccccc3c(=O)[nH]2)c2ccccc21", "Potency": "inconclusive: 6.31 µM [rising, single point]"}, {"smiles": "On1onc2c3cc(-c4ccccc4)nc3ccc21", "Potency": "inconclusive: 29.1 µM [falling, single point]"}, {"smiles": "CCOc1cc(/C=N/Nc2cccc(C(=O)O)c2)ccc1OCC(=O)N1CCCCC1", "activity change, negative = inhibition": "inconclusive: -16.7%"}, {"smiles": "CC(C)(C)c1cc(S(=O)(=O)CCc2ccccn2)cc(C(C)(C)C)c1F", "activity change, negative = inhibition": "inconclusive: -20.1%"}, {"smiles": "CC(=O)Nc1ccc2nc(-c3cccnc3)[nH]c2c1", "activity change, negative = inhibition": "inconclusive: 6.59%"}, {"smiles": "CN(CCc1cn[nH]c1)Cc1nc(C(c2ccccc2)c2ccccc2)no1", "activity change, negative = inhibition": "inconclusive: -3.65%"}, {"smiles": "CC(C)c1ccccc1NC(=S)N1CCN(Cc2ccc3c(c2)OCO3)CC1", "activity change, negative = inhibition": "inconclusive: -12.4%"}, {"smiles": "Cc1ccc(C(=O)NC(=S)Nc2ccc(Oc3ccc(Cl)cc3)cc2)cc1", "activity change, negative = inhibition": "inactive: 8.44%"}, {"smiles": "Cc1c(NC(=O)C(c2ccccc2)c2ccccc2)cccc1C(=O)O", "activity change, negative = inhibition": "inconclusive: 7.44%"}, {"smiles": "Cc1cccc(NC(=O)N[C@@H](C)C(=O)O)c1", "activity change, negative = inhibition": "inactive: 2.44%"}, {"smiles": "O=c1[nH]c2ccccc2c(O)c1-c1ccccc1[N+](=O)[O-]", "activity change, negative = inhibition": "inconclusive: 3.83%"}, {"smiles": "COc1ccc(/C=C2\\SC(=S)N(CCC(=O)Nc3cccc(C(=O)O)c3)C2=O)cc1", "Potency": "inconclusive: 7.08 µM [falling, partial curve]"}, {"smiles": "Cc1sc2ncnc(N[C@@H](Cc3ccccc3)C(=O)O)c2c1C", "activity change, negative = inhibition": "inactive: -0.439%"}, {"smiles": "CC(C)(C)c1ccc(/C=C2\\Oc3cc(O)ccc3C2=O)cc1", "activity change, negative = inhibition": "inconclusive: -21.2%"}, {"smiles": "Oc1ccc(N2CCN(c3nc(-c4cccs4)nc4ccccc34)CC2)cc1", "activity change, negative = inhibition": "inconclusive: 20.1%"}, {"smiles": "COCCCN(C(=O)c1ccccc1F)c1nc(-c2ccc(OC)cc2)cs1", "Potency": "inconclusive: 15.8 µM [falling, partial curve]"}, {"smiles": "Cc1cccnc1NC(=O)COc1ccc2c(c1)CCC2", "Potency": "inconclusive: 29.1 µM [falling, single point]"}, {"smiles": "O=C(NCc1cccc(Cl)c1)c1ccc2nc(N3CCOCC3)sc2c1", "activity change, negative = inhibition": "inactive: -3.27%"}, {"smiles": "CCOC(=O)CN(C(=O)COc1nc(-c2ccccc2)cc(C)c1C#N)c1cccc(OC)c1", "activity change, negative = inhibition": "inconclusive: -2.55%"}, {"smiles": "Cc1ccc(NC(=O)CSc2nnc(-c3cnccn3)n2Cc2ccco2)cc1", "activity change, negative = inhibition": "inconclusive: -27.5%"}, {"smiles": "COc1ccccc1C(=O)NC(=S)Nc1ccc(NC(=O)c2ccco2)cc1", "activity change, negative = inhibition": "inconclusive: 1.33%"}, {"smiles": "COc1cccc(C(c2c(O)nc(SC)n(C)c2=O)c2c(O)nc(SC)n(C)c2=O)c1", "Potency": "inconclusive: 35.5 µM [falling, partial curve, poor fit]"}, {"smiles": "COc1ccc([C@H]2CC(=O)C=C(c3ccc4ncccc4c3)C2)cc1OC", "activity change, negative = inhibition": "inconclusive: -7.29%"}, {"smiles": "Cc1nc(NC(=O)C2CCCC2)sc1Cc1ccc2c(c1)OCO2", "activity change, negative = inhibition": "inconclusive: -4.88%"}, {"smiles": "Cc1n[nH]c(=S)n1/N=C/c1ccccc1", "activity change, negative = inhibition": "inactive: 4.37%"}, {"smiles": "CCSc1nc(N2CCOCC2)c2c(c1C#N)CCCC2", "activity change, negative = inhibition": "inconclusive: 0.256%"}, {"smiles": "O=C(c1ccco1)N1CCN(C(=O)c2cc(Cl)nc3ccccc23)CC1", "activity change, negative = inhibition": "inactive: -0.755%"}, {"smiles": "CCOC(=O)C1C(=O)OC(C)(C)C1C(CC)C(=O)c1c(C)cc(C)cc1C", "note": "(stereo not given)", "activity change, negative = inhibition": "inconclusive: 0.244%"}, {"smiles": "COC(=O)c1ccc(NC(=O)c2ccc3nsnc3c2)cc1", "Potency": "inconclusive: 10 µM [falling, partial curve]"}, {"smiles": "CC(=O)N1CCc2cc(S(=O)(=O)NC3CCCc4ccccc43)ccc21", "note": "(stereo not given)", "activity change, negative = inhibition": "inactive: 7.21%"}, {"smiles": "Cn1c2c(c(=O)n(C)c1=O)C1c3ccccc3OCC1C(C)(C)O2", "note": "(stereo not given)", "activity change, negative = inhibition": "inconclusive: -1.54%"}, {"smiles": "CC(C)(C)NC(=O)CSc1ncnc2c1cnn2-c1ccccc1", "activity change, negative = inhibition": "inconclusive: -9.59%"}, {"smiles": "O=C1Nc2ccc(Br)cc2/C1=C/C1CC=CCC1", "note": "(stereo not given)", "Potency": "inconclusive: 11.2 µM [falling, partial curve]"}, {"smiles": "COc1cccc(Cn2c(=O)c3[nH]cnc3n(-c3ccccc3C)c2=O)c1", "activity change, negative = inhibition": "inconclusive: 1.67%"}, {"smiles": "O=C(CCc1ccccc1)NNC(=O)c1ccc(NC(=O)c2ccccc2)cc1", "activity change, negative = inhibition": "inactive: -0.344%"}, {"smiles": "CCOc1ccc(C(=O)NC(C)CCc2ccccc2)cc1", "note": "(stereo not given)", "activity change, negative = inhibition": "inactive: -10.8%"}, {"smiles": "COc1ccc(C(=O)N/N=C/C2CC=CCC2)cc1OC", "note": "(stereo not given)", "Potency": "inconclusive: 20 µM [falling, partial curve, poor fit]"}, {"smiles": "CC(C)CN(C(=O)Cn1nnc(-c2ccc(F)cc2)n1)C1CCS(=O)(=O)C1", "note": "(stereo not given)", "Potency": "inconclusive: 18.4 µM [falling, partial curve]"}, {"smiles": "Cc1ccc(/C([O-])=C(/C(=S)NCc2ccccc2)[n+]2cccc(CO)c2)cc1[N+](=O)[O-]", "activity change, negative = inhibition": "inconclusive: 4.99%"}, {"smiles": "O=[N+]([O-])c1ccc(N/N=C/c2ccccc2)c(F)c1", "activity change, negative = inhibition": "inconclusive: 0.279%"}, {"smiles": "O=C1[C@@H](Oc2ccccc2)[C@@H](c2cccnc2)N1c1ccccc1", "activity change, negative = inhibition": "inactive: 0.638%"}, {"smiles": "CC(Oc1ccc(F)cc1)C(=O)Nc1cc(S(=O)(=O)N2CCCCC2)ccc1N1CCOCC1", "note": "(stereo not given)", "activity change, negative = inhibition": "inconclusive: 6.45%"}, {"smiles": "CSc1ccccc1OCc1cc(C(=O)N2CCSCC2)no1", "activity change, negative = inhibition": "inactive: -0.794%"}, {"smiles": "COc1ccc(Nc2nc(NCc3ccco3)nc(N3CCOCC3)n2)cc1", "activity change, negative = inhibition": "inconclusive: -21.5%"}, {"smiles": "Cc1nc2c(cnn2-c2ccc(Cl)cc2)c(=O)n1-c1ccc(N2CCC(C)CC2)cc1", "activity change, negative = inhibition": "inconclusive: -1.2%"}, {"smiles": "O=C1c2ccccc2S(=O)(=O)N1CCS(=O)(=O)c1ccc(F)cc1", "activity change, negative = inhibition": "inconclusive: -28.9%"}, {"smiles": "COc1ccc(C(=O)/C=C2/C(=O)Nc3ccccc32)cc1OC", "Potency": "inconclusive: 0.794 µM [falling, full curve, poor fit]"}, {"smiles": "Cc1ccn2c(=O)nc(SCC(=O)c3ccccc3)nc2c1", "Potency": "inconclusive: 25.9 µM [rising, single point]"}, {"smiles": "CC(=O)c1cccc(S(=O)(=O)NC2CCCCCC2)c1", "activity change, negative = inhibition": "inconclusive: -5.53%"}, {"smiles": "CCNS(=O)(=O)c1ccc(OCCNS(C)(=O)=O)cc1", "activity change, negative = inhibition": "inconclusive: -4.31%"}, {"smiles": "CCCCCCCC1CC(CSc2ncn[nH]2)OC1=O", "note": "(stereo not given)", "Potency": "inconclusive: 8.2 µM [falling, partial curve, poor fit]"}, {"smiles": "COc1cccc(/C=C/C2=CC(C)(C)NC(=S)N2)c1", "activity change, negative = inhibition": "inconclusive: -29.5%"}, {"smiles": "c1ccc(SCc2cc(-c3ccccc3)no2)cc1", "Potency": "inconclusive: 35.5 µM [falling, single point]"}, {"smiles": "CC1CCCCC12NC(=O)N(CC(=O)OCC(=O)N(C)C1CCCCC1)C2=O", "note": "(stereo not given)", "activity change, negative = inhibition": "inconclusive: 3.79%"}, {"smiles": "CCOc1ccc2c(c1)[N+](C)(C)C(C)(C)C=C2C", "activity change, negative = inhibition": "inactive: 0.715%"}, {"smiles": "Cc1c(NC(=O)C23CC4CC(CC(C)(C4)C2)C3)c(=O)n(-c2ccccc2)n1C", "activity change, negative = inhibition": "inconclusive: -2.31%"}, {"smiles": "CCN(CC)c1ccc2cc(C(C)=O)c(=O)oc2c1", "activity change, negative = inhibition": "inactive: 1.39%"}, {"smiles": "CCS(=O)(=O)N1Cc2ccccc2CC1C(=O)NCC12CC3CC(CC(C3)C1)C2", "note": "(stereo not given)", "activity change, negative = inhibition": "inconclusive: 0.969%"}, {"smiles": "CC(=O)c1c(C)[nH]c(C(=O)COC(=O)c2cccc(S(=O)(=O)N(C)c3ccccc3)c2)c1C", "activity change, negative = inhibition": "inconclusive: -12.2%"}, {"smiles": "O=C(O)CCCC(=O)Nc1ccc2c(c1)oc1ccccc12", "Potency": "inconclusive: 7.94 µM [falling, partial curve, poor fit]"}, {"smiles": "O=S(=O)(c1ccc(Cl)cc1)N1CCC2(CC1)CO2", "activity change, negative = inhibition": "inactive: -8.27%"}, {"smiles": "COc1cccc(Oc2cn[nH]c2-c2ccc(OC)cc2O)c1", "activity change, negative = inhibition": "inactive: -9.99%"}, {"smiles": "O=C(O)c1ccccc1SC1CC(=O)N(c2cccc3ccccc23)C1=O", "note": "(stereo not given)", "Potency": "inconclusive: 7.94 µM [falling, partial curve]"}, {"smiles": "COc1ccc([C@H]2CC(=O)C=C(c3cc(F)ccc3OC)C2)cc1", "activity change, negative = inhibition": "inactive: -6.74%"}, {"smiles": "COc1cc(C2NC(=O)NC(C)=C2C(=O)OC2CCCCC2)cc(Cl)c1O", "note": "(stereo not given)", "activity change, negative = inhibition": "inactive: -19.1%"}, {"smiles": "O=C(c1ccc2c(=O)n(Cc3ccccc3)c(=S)[nH]c2c1)N1CCCC1", "activity change, negative = inhibition": "inactive: 10.9%"}, {"smiles": "CCCc1c(OCCCOc2ccc(OCC(=O)O)cc2)ccc(C(C)=O)c1O", "Potency": "inconclusive: 2.31 µM [rising, partial curve, poor fit]"}, {"smiles": "O=C(/C=C/c1ccc(Cl)cc1Cl)NC(=S)Nc1ccc(CN2CCOCC2)cc1", "activity change, negative = inhibition": "inconclusive: -3.45%"}, {"smiles": "Cc1ncsc1CCOC(=O)C1C2CC3CC(C2)CC1C3", "note": "(stereo not given)", "activity change, negative = inhibition": "inactive: -1.81%"}, {"smiles": "O=C(Nc1nc(N2C(=O)c3ccccc3C2=O)n(-c2ccccc2)n1)c1ccc(Cl)cc1", "activity change, negative = inhibition": "inconclusive: -13.2%"}, {"smiles": "CCn1c(SCC(=O)Nc2cc(C)on2)nc2sc(C)c(C)c2c1=O", "Potency": "inconclusive: 1.64 µM [falling, partial curve, poor fit]"}, {"smiles": "Cc1ccc(S(=O)(=O)c2c(N)n(CC3CCOC3)c3nc4ccccc4nc23)cc1", "note": "(stereo not given)", "Potency": "inconclusive: 11.6 µM [rising, partial curve, poor fit]"}]}]}
